From PubChem BioAssay AID1259415 (National Center for Advancing Translational Sciences (NCATS), 2018)
Screen size: about 410,000 compounds; about 18,000 (4.4%) were called active. Inconclusive results, whose numbers are uncertain, are shown with a selection of clear calls. No stated cut-off is given here; in the data, active means activity change below about -60%; inconclusive means no clear call, values can overlap the other calls; inactive means above about -39%. More than one record can exist for a structure, and the calls need not agree.

test: qHTS Assay for inhibitors of the human cytomegalovirus (HCMV); conditions: HFF cells, HCMV-luciferase reporter, 72 h; at 57.5 µM; hits give low values
How it was run: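 Compounds were evaluated in HFFs infected with an HCMV luciferase reporter virus (MOI 1 PFU/cell). Luciferase in lysates collected 72 h post infection served as the replication measure.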
On the % scale 0 is the no-effect control and ±100 the full control effect.

SMILES | activity change, negative = inhibition
CSc1ccc(CCNC(=O)CCc2c(C)nc3c4cccnc4nn3c2C)cc1 | inactive: -29.5%
O=C(CC1N=C2c3ccccc3N=C(SCc3cccc(F)c3)N2C1=O)NC1CCCCC1 (stereo not drawn) | inactive: -22.4%
O=C(Nc1ccc(F)c(F)c1)c1ccc(F)c(S(=O)(=O)N2CCC3(CC2)OCCO3)c1 | active: -82.2%
O=C(OCC(=O)N1CCN(C(=O)c2ccco2)CC1)c1cccc(F)c1 | inconclusive: -44%
Cc1cccc(N=c2oc3cc(O)ccc3cc2C(N)=O)c1 | active: -61.2%
COc1ccc(N(C)C(=O)c2cc3c(s2)-c2ccc(Cl)cc2S(=O)(=O)C3)c(OC)c1 | inconclusive: -56.7%
O=C(CN1CCN(S(=O)(=O)c2ccccc2)CC1)Nc1ccc(Cl)c(Cl)c1 | inconclusive: -41.6%
CC(C)CNc1cc(NC2CCCCC2)c2c3c(onc13)-c1ccccc1C2=O | inconclusive: -44.7%
COc1cc2c(cc1OC)CN(Cc1ccc(C)s1)CC2 | active: -95.1%
COC(=O)c1ccccc1NC(=O)CCc1c(C)nc2cc(-c3ccc(Cl)cc3)nn2c1C | inconclusive: -40.3%
COc1cc(C2CC(=O)N(CC(=O)Nc3ccccc3F)c3ccccc3S2)cc(OC)c1OC (stereo not drawn) | inactive: -37.2%
O=C(Nc1cccc([N+](=O)[O-])c1)N1CCCc2ccccc21 | inactive: -0.406%
COc1ccc(OCc2cc(C(=O)N3CCN(CC4CC4)CC3)no2)c(Cl)c1 | inactive: -13.4%
CCC(C(=O)NCCc1ccc(SC)cc1)n1nc(C)c2c(C)n(-c3ccc(C)cc3)nc2c1=O (stereo not drawn) | active: -79.6%
CN(C)S(=O)(=O)N1CCC(Oc2cccc(C(=O)NCCCC3CCCC3)c2)CC1 | inconclusive: -57.7%
COc1ccc(Cl)cc1C(=O)Nn1c(-c2cccs2)nc2ccccc2c1=O | inconclusive: -44.6%
Cc1ccc(-n2nc(CO)c(C(=O)NC(C)c3ccccc3)n2)cc1C (stereo not drawn) | active: -63.2%
Cc1ccc(CCNC(=O)c2ccc(CSc3nc4ccncc4n3Cc3ccc(F)cc3)cc2)cc1 | active: -69.6%
COc1ccc(NC(=S)Nc2ccc(F)cc2)cc1 | inconclusive: -41.7%
O=C(Nc1cc(Sc2ccccn2)cc([N+](=O)[O-])c1)c1cccc(Cl)c1 | inconclusive: -50.8%
Cc1[nH]n(C(N)=S)c(=O)c1C(c1ccccc1)C(C#N)C#N (stereo not drawn) | inconclusive: -43.8%
COc1cccc(CCc2nnc(CCC(=O)NC(C)c3c(C)nn(C)c3C)o2)c1 (stereo not drawn) | inconclusive: -40.5%

SMILES | activity change, negative = inhibition
O=C(CSc1nc(C2CC2)nc2ccccc12)Nc1ccccc1N1CCOCC1 | active: -72%
COC(=O)c1cc(C#N)c(OC(C)C)nc1C | inconclusive: -46.7%
Cc1cc(C)cc(NC(=S)N2CCN(c3ccc(F)cc3)CC2)c1 | inconclusive: -40.5%
CO/C(N)=C(\C#N)N=Cc1ccccc1Cl | inactive: -7.01%
COc1cc(NC(=O)c2cc3cc4cc(OC)ccc4nc3o2)cc(OC)c1 | inconclusive: -42.8%
O=C(Cc1ccc(Br)cc1)NC1CCN(Cc2ccccc2)CC1 | inconclusive: -43.3%
COCCn1c(Cc2ccccc2)nnc1SCc1ccc([N+](=O)[O-])cc1 | inconclusive: -45%
CCOc1ccccc1N(CC(=O)N1CCC(C(N)=O)CC1)S(=O)(=O)c1ccc(SC)cc1 | active: -69.6%
COc1ccccc1N1CCN(/N=C/c2ccc([N+](=O)[O-])cc2)CC1 | inactive: 59.6%
CC(=O)C1=CCC(c2ccc(Cl)cc2)N(S(=O)(=O)c2ccc(C)cc2)C1 (stereo not drawn) | inconclusive: -48.6%
CC(C)CN(CC(C)C)c1nc(N)c(C#N)c(CC#N)c1C#N | inconclusive: -48.5%
CN(C)S(=O)(=O)N1CCN(CC(O)COc2ccc(C(=O)c3ccccc3)cc2)CC1 (stereo not drawn) | inconclusive: -53.8%
Cc1ccccc1NC(=O)C1C2C=CC(C3CC23)C1C(=O)O (stereo not drawn) | inactive: 7.05%
COCCN(C(=O)CCC(=O)Nc1ccccn1)C(C(=O)NCCC(C)C)c1ccc(C)cc1 (stereo not drawn) | inconclusive: -45.3%
CCn1c(SCc2nc(-c3ccc(Cl)cc3)no2)nnc1-c1ccco1 | inconclusive: -43%
C#CC[N+](C)(C)CC#Cc1ccc(Cl)cc1 | active: -93.9%
NC(=O)c1ccc(N2CCN(c3ncc(C(F)(F)F)cc3Cl)CC2)cc1 | inconclusive: -40.5%
CCc1nnc(NC(=O)c2ccc(OC)cc2OC)s1 | inactive: 79%
Cc1onc(-c2c(F)cccc2Cl)c1C(=O)NC(=S)NCc1cccnc1 | inconclusive: -41.4%
CCOC(=O)N1CCN(C(=O)c2ccc(N3CCCC3=O)cc2)CC1 | inactive: 7.33%
CC(C)NC(=O)C1(C#N)C=C1c1ccccc1 (stereo not drawn) | inconclusive: -43.8%
CCc1cc(Cn2nc(-c3ccccc3)cc2C(=O)NCc2cccc(Br)c2)on1 | inconclusive: -45.2%

Single entries from above:
activity change, negative = inhibition, `COc1ccc(OCc2cc(C(=O)N3CCN(CC4CC4)CC3)no2)c(Cl)c1` reads inactive: -13.4%
activity change, negative = inhibition, `O=C(Cc1ccc(Br)cc1)NC1CCN(Cc2ccccc2)CC1` reads inconclusive: -43.3%
activity change, negative = inhibition, `COc1cccc(CCc2nnc(CCC(=O)NC(C)c3c(C)nn(C)c3C)o2)c1` (stereo not drawn) reads inconclusive: -40.5%
activity change, negative = inhibition, `Cc1ccc(-n2nc(CO)c(C(=O)NC(C)c3ccccc3)n2)cc1C` (stereo not drawn) reads active: -63.2%

(listing goes on)

SMILES | activity change, negative = inhibition
CCOc1ccc(-c2[nH]ncc2Oc2ccccc2OC)c(O)c1 | inconclusive: -53.7%
COc1ccc(-c2cn[nH]c2N)c(OC)c1 | inconclusive: -54.2%
Oc1ccc(C23CCCC2C2(CCCC2)c2ccc(O)cc2O3)c(O)c1 (stereo not drawn) | inconclusive: -44.5%
Cc1cccc(C)c1NC(=S)NCc1ccncc1 | inactive: -19.2%
Cn1c(N=Nc2ccc(N3CCOCC3)cc2)[n+](C)c2ccccc21 | inconclusive: -50.3%
C/C(CCC(C)C)=N\NC(=O)COc1ccccc1-c1ccccc1 | active: -90%
COc1ccc2cc3c(N)nn(C(=O)c4ccc(F)cc4Cl)c3nc2c1 | active: -70.4%
CON(C)c1nc(OCC#N)nc(N(C)C)n1 | inconclusive: -55.3%
O=C(O)CCCNC(=O)c1ccc(NC(=O)Cc2ccc(Cl)cc2)cc1 | inconclusive: -54.7%
CCOC(=O)N1CCC(NC(=S)Nc2ccc3nc(N4CCN(CC)CC4)cc(C)c3c2)CC1 | inactive: -8.71%
CCN1C(=O)c2ccccc2S(=O)c2ccc(C(=O)NCCN(CC(C)C)CC(C)C)cc21 (stereo not drawn) | inactive: -36.5%
FC(F)(F)c1cccc(OCc2nnc3n2CCC3)c1 | inconclusive: -46.1%
Cc1ccc2ccc3cc(C(=O)Nc4ccc(C)c(F)c4)nc3c2[nH]1 | active: -75.6%
CN(CC1CCCO1)S(=O)(=O)c1ccc(C(=O)Nc2ccc(F)cc2)cc1 (stereo not drawn) | inconclusive: -50.6%
CCOC(=O)c1ccc(CN(Cc2ccc(F)cc2)S(=O)(=O)c2cc(C(=O)Nc3ccccc3CC)ccc2F)cc1 | inconclusive: -47.1%
CCN(CCn1cccn1)C(=O)CC1C(=O)NCCN1Cc1ccc(F)c(F)c1 (stereo not drawn) | inactive: -14.5%
O=C(O)C1(c2ccccc2)CCN(S(=O)(=O)c2ccc(Br)cc2)CC1 | inconclusive: -45.5%
C[n+]1c(-c2ccccc2)cc2c(=Cc3ccccc3)c3ccccc3n21 | active: -98.7%
Cc1ccc(CNC(=O)c2cc(Sc3ccc(F)cc3F)nc3ccccc23)cc1 | active: -66.2%
CC(=O)c1c(C)[nH]c(C(=O)Nc2ccc(C)cn2)c1C | inconclusive: -43.7%
Cc1cccc(N2CCN(C(=O)/C=C/c3cccs3)CC2C)c1 (stereo not drawn) | inconclusive: -40.7%
O=C1C=CC(=NN=C(c2ccccc2)c2ccccc2)C=C1 | active: -80.2%

SMILES | activity change, negative = inhibition
CC1=C(C(=O)N2CCOCC2)CC(CC(=O)NC2CC2)C(=O)N1CCC1=CCCCC1 (stereo not drawn) | inactive: -21.7%
COc1ccccc1C(=O)N(Cc1ccco1)Cc1ccccc1F | inconclusive: -46.3%
CN(CCc1ccccc1)c1cc2c(c3c1ccn3C)C1CCC2O1 (stereo not drawn) | inactive: 12.2%
O=C(COCc1cc(-c2ccc3c(c2)OCO3)on1)N1CCN(c2ccc(F)cc2)CC1 | inconclusive: -43.2%
O=c1ccc2ccccc2c2ccccc12 | active: -99.2%
COc1cccc(N(C(=O)Cc2cccs2)C(C(=O)NC2CCCC2)c2ccncc2)c1 (stereo not drawn) | inconclusive: -44.5%
COc1cccc(Oc2coc3cc(OC(=O)N4CCOCC4)ccc3c2=O)c1 | inconclusive: -59.6%
Cc1c(NC(=S)NCc2ccc(F)cc2)cccc1[N+](=O)[O-] | inconclusive: -52.7%
COc1ccc(S(=O)(=O)N2CCOC2CNC(=O)C(=O)NCc2ccc(F)cc2)cc1 (stereo not drawn) | inconclusive: -47.3%
O=C(/C=C/c1ccc([N+](=O)[O-])s1)N1CCN(c2ccccc2)CC1 | active: -70.5%
O=C(CSc1nnc(CNC(=O)c2c(F)cccc2Cl)o1)NCc1ccccc1 | inconclusive: -45%
COc1ccc(Nc2nnc(-c3ccncc3)s2)cc1Cl | inconclusive: -58.6%
CCOc1ccccc1N(CC(=O)Nc1c(C)n(C)n(-c2ccccc2)c1=O)S(=O)(=O)c1ccccc1 | active: -77.7%
COC(=O)Cc1ccc(NC(=O)c2ccc(C)c(C)c2)cc1 | inconclusive: -56.5%
Cc1cccc(-n2c(=O)[nH]c3c(C(N)=O)nc(-c4ccccc4Cl)nc32)c1 | inconclusive: -50.6%
CC12CN3CC(C)(CN(C1)C3c1ccccc1)C2O (stereo not drawn) | inconclusive: -46%
CCN(CC)CCCn1c2c(c(SCC(=O)Nc3ccc4c(c3)OCCO4)nc1=O)CCC2 | inactive: -19.5%
CN(C)C(=O)c1ccc2c(c1)C1C3CCC(C3)C1C(c1ccccc1)N2 (stereo not drawn) | inconclusive: -51%
Cc1ccc2cccc(OCCOCCOc3ccccc3Br)c2n1 | inconclusive: -40.1%
CN(C(=O)c1ccc(S(=O)(=O)c2cccc(Cl)c2)c([N+](=O)[O-])c1)C1CCCCC1 | inconclusive: -50.1%
Cc1sc2ncnc(Sc3nnnn3-c3ccccc3)c2c1C | active: -71.3%
Cc1ccc(C(=O)COC(=O)CCc2ccc(S(=O)(=O)N3CCCCC3)cc2)cc1 | inconclusive: -49.6%
